Test results reported in PubChem BioAssay AID504327 (National Center for Advancing Translational Sciences (NCATS), 2011).
About 820 (0.21%) of roughly 390,000 compounds were called active. Inconclusive means that the source gave no clear call. Such entries were picked first, then a sample of the others. Calls follow the shape of the dose curve; as a rule, active = well fitted inhibition curve with a large enough effect; inconclusive = small, poorly fitted or top-dose-only effect, or another doubt; inactive = no such curve, though single readings can be large or run the other way. Potencies of inconclusive entries are doubtful fits and often do not repeat.

By UniProt entry, the sequences of proteins in these tests, tags left out.
UniProt Q92830, whole entry, looked up: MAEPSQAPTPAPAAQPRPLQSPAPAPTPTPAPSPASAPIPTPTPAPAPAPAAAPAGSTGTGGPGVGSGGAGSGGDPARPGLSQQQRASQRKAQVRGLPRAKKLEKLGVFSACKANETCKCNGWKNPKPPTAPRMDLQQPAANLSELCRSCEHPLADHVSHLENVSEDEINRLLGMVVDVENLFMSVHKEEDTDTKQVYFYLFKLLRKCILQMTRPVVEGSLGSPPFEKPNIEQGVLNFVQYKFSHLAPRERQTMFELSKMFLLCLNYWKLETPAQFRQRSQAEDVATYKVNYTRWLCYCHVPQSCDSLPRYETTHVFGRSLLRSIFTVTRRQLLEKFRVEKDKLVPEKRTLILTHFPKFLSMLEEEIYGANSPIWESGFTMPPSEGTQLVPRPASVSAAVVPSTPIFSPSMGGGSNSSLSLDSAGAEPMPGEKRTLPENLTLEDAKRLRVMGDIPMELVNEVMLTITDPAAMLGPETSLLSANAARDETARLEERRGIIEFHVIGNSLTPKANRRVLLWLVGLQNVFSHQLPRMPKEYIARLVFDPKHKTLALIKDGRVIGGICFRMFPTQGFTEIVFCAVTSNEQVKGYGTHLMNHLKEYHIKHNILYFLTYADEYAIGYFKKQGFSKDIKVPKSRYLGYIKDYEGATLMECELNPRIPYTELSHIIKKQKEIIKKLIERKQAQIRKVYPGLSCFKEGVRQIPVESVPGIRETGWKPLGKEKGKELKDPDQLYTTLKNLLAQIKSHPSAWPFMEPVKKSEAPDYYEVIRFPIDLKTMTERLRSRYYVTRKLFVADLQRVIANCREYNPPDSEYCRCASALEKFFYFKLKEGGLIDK

Each compound was assayed against Histone acetyltransferase KAT2A (Homo sapiens) (UniProt Q92830) (assay: qHTS Assay for Inhibitors of GCN5L2). Settings: GCN5L2 HAT assay, ThioGlo1 CoA-SH fluorescence; activity change, negative = inhibition: at 58.9 µM (top of the series) unless noted.
Procedure, shortened: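 GCN5L2 (20nM final) in 50mM HEPES, 0.1mM EDTA pH 7.5, 0.01% Tween-20 was preincubated 15 min at room temperature with compound, then given ThioGlo1 (50uM), H3(1-25) peptide (75uM) and acetyl-CoA (70uM); CoA-thiol fluorescence (Ex340/Em540) was read at 0 and 20 min.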
% is scaled to controls: 0 for no effect and ±100 for the full control effect; potency is read from the fitted curve at half-maximal effect.

Row | SMILES | Potency | activity change, negative = inhibition
1 | Cc1cc2c(cc1S(=O)(=O)CCC(=O)N(C)Cc1ccccc1)OCC(=O)N2 | inconclusive: 7.08 µM [inhibitor, single point] | 
2 | Cc1noc(C(=O)Nc2ccc(C#N)cc2)c1Cl | inconclusive: 39.8 µM [inhibitor, single point] | 
3 | CCCC(=O)N(c1ccc2oc(=O)sc2c1)S(=O)(=O)c1ccccc1 | inconclusive: 8.91 µM [inhibitor, single point] | 
4 | Cc1cc(Br)ccc1NC(=O)C(NS(=O)(=O)c1cccs1)c1ccccc1 (stereo not given) | inactive | 
5 | CN(C)CCCN(C(=O)c1sc2ccccc2c1Cl)c1nc2c(F)cccc2s1 | inactive | 
6 | Cc1nn(C(C)C(=O)NCc2ccccc2Cl)c(=O)c2c1sc1ccccc12 (stereo not given) | inconclusive: 7.94 µM [inhibitor, partial curve] | 
7 | N#Cc1nc(COc2ccccc2F)oc1NCc1ccc(F)cc1 | inactive | 
8 | CCOC(=O)c1cnc2c(ccc3ccccc32)c1Nc1ccc(OC)cc1OC | inactive | 
9 | Cc1cccc(Nc2nc(NCc3ccco3)c3ccccc3n2)c1 | inactive | 
10 | CN(C)S(=O)(=O)c1cccc(NC(=S)Nc2cccc3cnccc23)c1 | inactive | 
11 | COc1cc(N)c(Cl)cc1C(=O)OCC(=O)Nc1cccnc1Cl | inconclusive: 0.708 µM [inhibitor, full curve, poor fit] | 
12 | COc1ccc(Br)cc1C1CC(=O)N2CN(Cc3ccccc3)CSC2=C1C#N (stereo not given) | inconclusive: 22.4 µM [inhibitor, partial curve] | 
13 | Cc1ccc(CCNS(=O)(=O)c2ccc3c(c2)CCN3C(=O)CCC(=O)O)cc1 | inactive | 
14 | CCOc1ccc(-n2c(-c3ccco3)n[nH]c2=S)cc1 | inconclusive: 31.6 µM [inhibitor, single point] | 
15 | CSc1ccc(CN(C)CC(=O)NCCc2ccccc2)cc1 | inactive | 
16 | Cc1cccc(C)c1NC(=O)CN(C)CC(=O)Nc1ccccc1Br | inconclusive: 3.98 µM [inhibitor, single point] | 
17 | COc1cccc(NC(=O)C2CCN(S(=O)(=O)c3ccc4[nH]c(=O)oc4c3)CC2)c1 | inconclusive: 22.4 µM [inhibitor, partial curve, poor fit] | 
18 | Cc1coc2c(C)c3oc(=O)c(CCC(=O)NCCC(=O)O)c(C)c3cc12 | inconclusive: 39.8 µM [inhibitor, single point] | 
19 | CC1=C([N+](=O)[O-])C(c2cccc(Br)c2)C2=C(N1)c1ccccc1C2=O (stereo not given) |  | inconclusive: -30.6% [inhibitor]
20 | Cc1ccccc1-n1c(SCC(=O)N2CCCCC2)nc(O)cc1=O | inactive | 
21 | CN(C)C(CNC(=O)CCc1nc2sc3c(c2c(=O)[nH]1)CCCC3)c1ccccc1 (stereo not given) | inactive | 
22 | CCOC(=O)c1ccc(CN(Cc2ccc(F)cc2)S(=O)(=O)c2cc(C(=O)Nc3ccccc3CC)ccc2F)cc1 | inactive | 
23 | O=C1ON=C(c2ccc([N+](=O)[O-])cc2)/C1=C/c1ccccc1O | inconclusive: 20 µM [inhibitor, partial curve] | 
24 | CCOC(=O)N1CCc2c(sc(NC(=O)c3ccc(Cl)s3)c2C(N)=O)C1 | inactive | 

Row | SMILES | Potency | activity change, negative = inhibition
25 | CCNC(=S)N1CCC(Cc2ccccc2)CC1 | inconclusive: 3.98 µM [inhibitor, full curve] | 
26 | CCOc1ccc(-c2[nH]ncc2Oc2ccccc2OC)c(O)c1 | inconclusive: 31.6 µM [inhibitor, single point] | 
27 | COc1cc(C2Nc3ccc4ccccc4c3C3=C2C(=O)CC(C)(C)C3)ccc1OC(C)C(=O)O (stereo not given) | inconclusive: 39.8 µM [inhibitor, single point] | 
28 | Cc1ccc(C(=O)NC(=S)Nc2cccc(-c3nc4ccccc4s3)c2)cc1 | inconclusive: 7.08 µM [inhibitor, single point] | 
29 | COc1cc(/C=N/NC(=O)C2=NNC(=O)C2C)ccc1O (stereo not given) | inactive | 
30 | CCN1CCN(C(=O)c2cc3c(OC)c(OC)c(OC)cc3[nH]2)CC1 | inconclusive: 1 µM [inhibitor, full curve, poor fit] | 
31 | CCn1c(=O)n(CC2CCC(C(=O)NC(C)C)CC2)c(=O)c2sccc21 (stereo not given) | inactive | 
32 | COc1ccc(NC(=O)C(=O)N2N=C3CCCCC3C2(O)C(F)(F)F)cc1 (stereo not given) | inconclusive: 39.8 µM [inhibitor, single point] | 
33 | O=[N+]([O-])c1ccc(N2CCN(S(=O)(=O)c3ccccc3)CC2)c2cccnc12 | inactive | 
34 | CCOC(=O)c1cc(CC)sc1NC(=O)COc1ccccc1C | inactive | 
35 | CCC(C)NC(=O)C1CCC(CNS(=O)(=O)c2ccc3c(c2)CC(C)N3C(=O)C2CC2)CC1 (stereo not given) | inconclusive: 39.8 µM [inhibitor, single point] | 
36 | O=C(CC1OC(=O)c2ccccc21)NCC1COc2ccccc2O1 (stereo not given) | inconclusive: 7.08 µM [inhibitor, single point] | 
37 | CSc1nc(=S)n(-c2ccc([N+](=O)[O-])cc2)c(C)c1C(C)=O | inconclusive: 0.708 µM [inhibitor, single point] | 
38 | COCCNC(=O)c1cccc(S(=O)(=O)N2CC3(C)CC2CC(C)(C)C3)c1 (stereo not given) | inconclusive: 20 µM [inhibitor, partial curve] | 
39 | Cc1ccc(-n2nc(CO)c(C(=O)NC(C)c3ccccc3)n2)cc1C (stereo not given) | inactive | 
40 | CC(=O)NC(CC(=O)Oc1ccc(C)cc1Br)c1ccccc1 (stereo not given) | inconclusive: 25.1 µM [inhibitor, single point] | 
41 | O=[N+]([O-])c1ccc(-c2c[nH]c(=S)[nH]2)cc1 | inconclusive: 28.2 µM [inhibitor, single point] | 
42 | Cc1nn(-c2ccccc2)c(Cl)c1/C=N/Nc1ccc(S(=O)(=O)Nc2ccccc2C(=O)O)cc1[N+](=O)[O-] | inconclusive: 39.8 µM [inhibitor, single point] | 
43 | CCOC(=O)/C=C(C)/C=C/C=C(C)/C=C/c1c(C)cc(OC)c(C)c1C | inactive | 
44 | CCOC(=O)N1CCN(S(=O)(=O)c2ccc(OC)c(Br)c2)CC1 | inactive | 
45 | CCOc1ccc(-n2c(C)nc3c(cnn3-c3ccc(Cl)cc3)c2=O)cc1 | inactive | 
46 | CN(C)c1ncc2nc(CCc3ccccc3)c(=O)n(-c3ccccc3)c2n1 | inconclusive: 15.8 µM [inhibitor, partial curve] | 
47 | Cc1ccc(N2CC(C(=O)Nc3nnc(SCCC4OCCO4)s3)CC2=O)cc1C (stereo not given) | inconclusive: 3.98 µM [inhibitor, full curve] | 
48 | Clc1ccc(OCc2nc(-c3ccccn3)n[nH]2)cc1 | inactive | 

Row | SMILES | Potency | activity change, negative = inhibition
49 | COC(=O)c1c(-c2cccs2)csc1NC(=O)COc1ccccc1 | inconclusive: 28.2 µM [inhibitor, partial curve] | 
50 | O=C(CN1C(=O)COc2ccccc21)N1CCOCC1 | inconclusive: 7.08 µM [inhibitor, single point] | 
51 | COC(=O)c1c(-c2cccs2)csc1NC(=O)c1ccc(C(C)(C)C)cc1 | inconclusive: 25.1 µM [inhibitor, partial curve] | 
52 | Cc1cccc2cc(C3CC(c4cccs4)=NN3S(C)(=O)=O)c(Cl)nc12 (stereo not given) | inconclusive: 31.6 µM [inhibitor, single point] | 
53 | O=C(NNc1ccc(C2CCCCC2)cc1)C(O)(c1ccccc1)c1cccs1 (stereo not given) | inconclusive: 10 µM [inhibitor, partial curve] | 
54 | COc1ccc(NC(=O)N2CCN(c3cccc(C(F)(F)F)c3)CC2)cc1OC | inactive | 
55 | CC(C)N=c1scc(-c2ccco2)n1/N=C/c1ccc(O)c(O)c1 | inconclusive: 20 µM [inhibitor, single point] | 
56 | COc1cccc(C2=NN(S(C)(=O)=O)C(c3cccs3)C2)c1 (stereo not given) | inconclusive: 3.98 µM [inhibitor, full curve, poor fit] | 
57 | O=C(O)c1ccc(N=Nc2c(O)[nH]c3ccccc23)cc1 | inconclusive: 39.8 µM [inhibitor, single point] | 
58 | CC1=C(C#N)c2nc(N)c(C#N)c(C)c2/C1=C\c1ccc(OCC(=O)O)c(Cl)c1 | inconclusive: 7.94 µM [inhibitor, partial curve, poor fit] | 
59 | Cc1ccccc1C(=O)Nc1nc(=S)ss1 | inconclusive: 2.82 µM [inhibitor, single point] | 
60 | O=C(NCc1ccco1)c1nc2nc(-c3cccs3)cc(C(F)(F)F)n2n1 | inconclusive: 35.5 µM [inhibitor, single point] | 
61 | CNC(=O)COc1coc(CN2CCN(c3ccc(OC)cc3)CC2)cc1=O | inconclusive: 39.8 µM [inhibitor, single point] | 
62 | O=C1NC(=S)N/C1=C/c1ccc2ccccc2c1 | inconclusive: 6.31 µM [inhibitor, single point] | 
63 | NS(=O)(=O)c1ccc(NC(=O)CSc2ncnc3ccccc23)cc1 | inactive | 
64 | Cc1cc(O)c(C(=O)/C=C/c2ccccc2Br)c(=O)o1 | inconclusive: 39.8 µM [inhibitor, single point] | 
65 | CCN(C(=O)c1ccc(S(=O)(=O)N(C)C)cc1)C(C)C(=O)Nc1ccc(C)cc1 (stereo not given) | inactive | 
66 | N#Cc1ccc(C(=O)OCCCc2cc3ccccc3c(=O)o2)cc1 | inconclusive: 39.8 µM [inhibitor, single point] | 
67 | O=C(Cc1ccc(Cl)cc1)NC1CCS(=O)(=O)C1 (stereo not given) | inconclusive: 4.47 µM [inhibitor, full curve] | 
68 | COc1cc(-c2nnc(-c3cccs3)o2)cc(OC)c1OC | inconclusive: 22.4 µM [inhibitor, partial curve] | 
69 | NC(=O)C1CCN(C(=O)CN(c2cccc(Cl)c2)S(=O)(=O)c2ccccc2)CC1 | inconclusive: 14.1 µM [inhibitor, partial curve, poor fit] | 
70 | O=C(Nc1ccc2oc(-c3ccccc3)nc2c1)c1ccc2c(c1)OCCO2 | inactive | 
